Results published in patent US20210085785A1 (TRUEBINDING, published 2021).
Results are given in words; binding and its absence hold for the method and conditions named. For part of these data: In cells and extracts the contact can be indirect. Some binding calls cover weakened binding; strength is not graded here. For part of these data: Where a sequence is shown, tags or fusion partners need not be part of it.

Legend:
[1] = target: T1, Flag-tagged hLRIG1 (human) (UniProt Q96JA1); test: co-immunoprecipitation: anti-HA pull-down from co-transfected 293T lysate, blot probed with anti-Flag
T1 sequence: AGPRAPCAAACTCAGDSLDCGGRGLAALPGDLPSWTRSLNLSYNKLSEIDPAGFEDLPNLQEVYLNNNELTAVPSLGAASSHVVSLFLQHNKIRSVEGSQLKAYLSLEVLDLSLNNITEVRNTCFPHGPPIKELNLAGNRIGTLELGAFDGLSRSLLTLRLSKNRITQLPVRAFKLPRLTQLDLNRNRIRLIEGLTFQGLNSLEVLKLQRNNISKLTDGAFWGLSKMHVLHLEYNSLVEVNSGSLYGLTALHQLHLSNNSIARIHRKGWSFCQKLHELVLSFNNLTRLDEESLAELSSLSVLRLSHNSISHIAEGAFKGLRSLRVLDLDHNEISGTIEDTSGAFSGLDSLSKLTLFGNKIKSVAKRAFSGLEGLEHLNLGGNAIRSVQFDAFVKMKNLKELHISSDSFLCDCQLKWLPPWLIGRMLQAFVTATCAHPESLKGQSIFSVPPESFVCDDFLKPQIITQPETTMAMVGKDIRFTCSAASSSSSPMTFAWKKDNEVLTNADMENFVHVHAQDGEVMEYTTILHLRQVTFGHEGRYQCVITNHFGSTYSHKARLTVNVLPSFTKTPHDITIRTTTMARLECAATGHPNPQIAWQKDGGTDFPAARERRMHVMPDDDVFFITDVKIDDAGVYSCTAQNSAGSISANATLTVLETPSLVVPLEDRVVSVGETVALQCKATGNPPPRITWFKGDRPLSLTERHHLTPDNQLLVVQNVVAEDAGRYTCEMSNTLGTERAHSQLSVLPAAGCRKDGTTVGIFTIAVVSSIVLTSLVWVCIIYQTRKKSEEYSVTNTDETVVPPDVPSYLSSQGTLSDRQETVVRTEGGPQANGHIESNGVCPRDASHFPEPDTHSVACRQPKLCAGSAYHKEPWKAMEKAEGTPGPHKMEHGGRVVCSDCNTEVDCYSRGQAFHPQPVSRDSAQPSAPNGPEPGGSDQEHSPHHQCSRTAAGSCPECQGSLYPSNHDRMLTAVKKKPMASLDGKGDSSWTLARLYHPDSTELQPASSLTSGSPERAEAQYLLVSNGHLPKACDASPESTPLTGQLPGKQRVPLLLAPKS

HA-tagged hVISTA (human) = target: T2, HA-tagged hVISTA (human) (UniProt Q9H7M9); test: co-immunoprecipitation from co-transfected 293T cells
T2 sequence: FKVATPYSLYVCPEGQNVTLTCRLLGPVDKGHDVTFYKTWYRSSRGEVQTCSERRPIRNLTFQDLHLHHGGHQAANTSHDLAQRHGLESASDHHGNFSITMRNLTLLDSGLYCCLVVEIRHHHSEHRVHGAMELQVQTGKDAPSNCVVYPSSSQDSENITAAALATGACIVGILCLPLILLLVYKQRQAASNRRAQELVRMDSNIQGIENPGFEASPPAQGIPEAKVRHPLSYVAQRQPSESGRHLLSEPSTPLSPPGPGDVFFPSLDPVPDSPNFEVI

[2] = target: T3, purified VISTA (cross-linking mass spectrometry) (Homo sapiens (Human)) (UniProt Q9H7M9); test: chemical cross-linking (K200 kit) and High-Mass MALDI MS; 3.2 uM LRIG1 mixed with 0.6 uM VISTA
T3 sequence: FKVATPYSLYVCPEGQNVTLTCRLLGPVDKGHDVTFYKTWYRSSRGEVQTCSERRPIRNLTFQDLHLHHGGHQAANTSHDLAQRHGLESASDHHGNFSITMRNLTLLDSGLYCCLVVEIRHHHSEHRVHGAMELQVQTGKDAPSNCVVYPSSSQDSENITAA

“HA-tagged hVISTA (from UniProt Q9H7M9 33-311) (receptor)” was tested, and the binding [1] was “binds”.

B1: Flag-tagged hLRIG1 (receptor, not shown: small tags and cut ends)
chain: T1 sequence
B1 was tested, and the binding (HA-tagged hVISTA (human)) was “binds”.

B2: purified LRIG1 (cross-linking mass spectrometry) (receptor)
chain: AGPRAPCAAACTCAGDSLDCGGRGLAALPGDLPSWTRSLNLSYNKLSEIDPAGFEDLPNLQEVYLNNNELTAVPSLGAASSHVVSLFLQHNKIRSVEGSQLKAYLSLEVLDLSLNNITEVRNTCFPHGPPIKELNLAGNRIGTLELGAFDGLSRSLLTLRLSKNRITQLPVRAFKLPRLTQLDLNRNRIRLIEGLTFQGLNSLEVLKLQRNNISKLTDGAFWGLSKMHVLHLEYNSLVEVNSGSLYGLTALHQLHLSNNSIARIHRKGWSFCQKLHELVLSFNNLTRLDEESLAELSSLSVLRLSHNSISHIAEGAFKGLRSLRVLDLDHNEISGTIEDTSGAFSGLDSLSKLTLFGNKIKSVAKRAFSGLEGLEHLNLGGNAIRSVQFDAFVKMKNLKELHISSDSFLCDCQLKWLPPWLIGRMLQAFVTATCAHPESLKGQSIFSVPPESFVCDDFLKPQIITQPETTMAMVGKDIRFTCSAASSSSSPMTFAWKKDNEVLTNADMENFVHVHAQDGEVMEYTTILHLRQVTFGHEGRYQCVITNHFGSTYSHKARLTVNVLPSFTKTPHDITIRTTTMARLECAATGHPNPQIAWQKDGGTDFPAARERRMHVMPDDDVFFITDVKIDDAGVYSCTAQNSAGSISANATLTVLETPSLVVPLEDRVVSVGETVALQCKATGNPPPRITWFKGDRPLSLTERHHLTPDNQLLVVQNVVAEDAGRYTCEMSNTLGTERAHSQLSVLPAAGCRKDGTTVG
In the case of B2, the binding [2] is reported as “binds”.
